According to patent publication EP4242303A1 (Novozymes A/S, dated 2023):
Changes are numbered by the printed parent chain. In names and notes the source's numbering stands. Results are given in words; binding and its absence hold for the method and conditions named. Some results given as binding are weak or reduced against the parent protein; the word gives no strength.

What was measured:
[1] = target: T1, deamidase polypeptide from Chryseobacterium sp-62563 (deamidase domain of the pro-form SEQ ID NO: 5) (Chryseobacterium sp-62563); assay: nanoDSF of the fusion polypeptide SEQ ID NO: 5
T1 sequence: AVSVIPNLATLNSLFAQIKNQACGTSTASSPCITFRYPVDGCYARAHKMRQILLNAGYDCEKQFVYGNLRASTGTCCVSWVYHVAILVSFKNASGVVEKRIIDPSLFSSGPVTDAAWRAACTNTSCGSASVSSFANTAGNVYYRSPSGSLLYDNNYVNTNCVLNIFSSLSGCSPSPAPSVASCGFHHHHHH

[2] = target: T1, deamidase polypeptide from Chryseobacterium sp-62563 (deamidase domain of the pro-form SEQ ID NO: 5) (Chryseobacterium sp-62563); assay: nanoDSF of the variant fusion polypeptide (F38C)
[3] = target: T1, deamidase polypeptide from Chryseobacterium sp-62563 (deamidase domain of the pro-form SEQ ID NO: 5) (Chryseobacterium sp-62563); assay: nanoDSF of the variant fusion polypeptide (F99A)
[4] = target: T1, deamidase polypeptide from Chryseobacterium sp-62563 (deamidase domain of the pro-form SEQ ID NO: 5) (Chryseobacterium sp-62563); assay: nanoDSF of the variant fusion polypeptide (F99G)
[5] = target: T1, deamidase polypeptide from Chryseobacterium sp-62563 (deamidase domain of the pro-form SEQ ID NO: 5) (Chryseobacterium sp-62563); assay: nanoDSF of the variant fusion polypeptide (F99K)
[6] = target: T1, deamidase polypeptide from Chryseobacterium sp-62563 (deamidase domain of the pro-form SEQ ID NO: 5) (Chryseobacterium sp-62563); assay: nanoDSF of the variant fusion polypeptide (V23S)
[7] = target: T1, deamidase polypeptide from Chryseobacterium sp-62563 (deamidase domain of the pro-form SEQ ID NO: 5) (Chryseobacterium sp-62563); assay: nanoDSF of the variant fusion polypeptide (Y45G)
[8] = target: T1, deamidase polypeptide from Chryseobacterium sp-62563 (deamidase domain of the pro-form SEQ ID NO: 5) (Chryseobacterium sp-62563); assay: nanoDSF of the variant fusion polypeptide (Y45T)
[9] = target: T1, deamidase polypeptide from Chryseobacterium sp-62563 (deamidase domain of the pro-form SEQ ID NO: 5) (Chryseobacterium sp-62563); assay: nanoDSF of the variant fusion polypeptide (Y94P)

B1: propeptide from Chryseobacterium sp-62563 (wildtype propeptide domain of the protein glutamine deamidase pro-form SEQ ID NO: 5) (other)
chain: NQDPNLVAKESNETAMKDFGKTVPVGIEKEDGKFKISFMVTAQPYEIKDSKENAAYISMIKTAVENETPIHVFLKANTNEIAKVDKATDDDIRYFKSVFTKEVKEENRK
- binding [1]: binds

B2: variant deamidase propeptide F38C of Chryseobacterium sp-62563 (SEQ ID NO: 2) (other)
chain: B1 chain with F38C
- binding [2]: binds

B3: variant deamidase propeptide F99A of Chryseobacterium sp-62563 (SEQ ID NO: 2) (other)
chain: B1 chain with F99A
- binding [3]: binds

B4: variant deamidase propeptide F99G of Chryseobacterium sp-62563 (SEQ ID NO: 2) (other)
chain: B1 chain with F99G
- binding [4]: binds

B5: variant deamidase propeptide F99K of Chryseobacterium sp-62563 (SEQ ID NO: 2) (other)
chain: B1 chain with F99K
- binding [5]: binds

B6: variant deamidase propeptide V23S of Chryseobacterium sp-62563 (SEQ ID NO: 2) (other)
chain: B1 chain with V23S
- binding [6]: binds

B7: variant deamidase propeptide Y45G of Chryseobacterium sp-62563 (SEQ ID NO: 2) (other)
chain: B1 chain with Y45G
- binding [7]: binds

B8: variant deamidase propeptide Y45T of Chryseobacterium sp-62563 (SEQ ID NO: 2) (other)
chain: B1 chain with Y45T
- binding [8]: binds

B9: variant deamidase propeptide Y94P of Chryseobacterium sp-62563 (SEQ ID NO: 2) (other)
chain: B1 chain with Y94P
- binding [9]: binds
